{"source": "patent US5719296A", "about": "(Merck & Co., Inc., priority 1996, dated 1998)", "test": "general procedure: solution-phase peptide synthesis; EDC/HOBT", "settings": "whole synthesis, RP-HPLC"}
{"substance": "EtOCO-Phe-(R)-γ-Lactam-Nva-Leu-NH2", "values": [{"measurement": "final HPLC purity", "value": 80, "unit": "% purity"}, {"measurement": "final purity (method not given)", "value": 98, "unit": "%"}]}
